From the supplement of paper PMC10849652
This is one part of the list.

The chains behind the UniProt entries cited, without tags or fusion partners. Where a name states a change or a piece, a line headed by the entry shows the natural chain unless it says otherwise.
UniProt P00390: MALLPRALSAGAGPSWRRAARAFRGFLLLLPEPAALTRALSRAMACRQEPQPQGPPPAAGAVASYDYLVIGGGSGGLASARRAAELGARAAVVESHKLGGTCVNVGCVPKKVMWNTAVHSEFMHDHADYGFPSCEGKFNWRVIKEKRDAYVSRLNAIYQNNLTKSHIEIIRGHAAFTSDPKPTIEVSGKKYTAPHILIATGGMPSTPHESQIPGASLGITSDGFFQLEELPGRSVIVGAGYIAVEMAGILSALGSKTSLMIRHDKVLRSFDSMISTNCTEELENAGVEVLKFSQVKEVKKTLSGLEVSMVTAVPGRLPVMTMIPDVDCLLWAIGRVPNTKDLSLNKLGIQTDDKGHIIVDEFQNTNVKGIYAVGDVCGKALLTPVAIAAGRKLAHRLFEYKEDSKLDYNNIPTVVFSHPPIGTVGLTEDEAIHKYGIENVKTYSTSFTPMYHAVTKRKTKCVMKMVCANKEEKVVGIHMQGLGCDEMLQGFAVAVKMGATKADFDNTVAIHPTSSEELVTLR
UniProt P13807: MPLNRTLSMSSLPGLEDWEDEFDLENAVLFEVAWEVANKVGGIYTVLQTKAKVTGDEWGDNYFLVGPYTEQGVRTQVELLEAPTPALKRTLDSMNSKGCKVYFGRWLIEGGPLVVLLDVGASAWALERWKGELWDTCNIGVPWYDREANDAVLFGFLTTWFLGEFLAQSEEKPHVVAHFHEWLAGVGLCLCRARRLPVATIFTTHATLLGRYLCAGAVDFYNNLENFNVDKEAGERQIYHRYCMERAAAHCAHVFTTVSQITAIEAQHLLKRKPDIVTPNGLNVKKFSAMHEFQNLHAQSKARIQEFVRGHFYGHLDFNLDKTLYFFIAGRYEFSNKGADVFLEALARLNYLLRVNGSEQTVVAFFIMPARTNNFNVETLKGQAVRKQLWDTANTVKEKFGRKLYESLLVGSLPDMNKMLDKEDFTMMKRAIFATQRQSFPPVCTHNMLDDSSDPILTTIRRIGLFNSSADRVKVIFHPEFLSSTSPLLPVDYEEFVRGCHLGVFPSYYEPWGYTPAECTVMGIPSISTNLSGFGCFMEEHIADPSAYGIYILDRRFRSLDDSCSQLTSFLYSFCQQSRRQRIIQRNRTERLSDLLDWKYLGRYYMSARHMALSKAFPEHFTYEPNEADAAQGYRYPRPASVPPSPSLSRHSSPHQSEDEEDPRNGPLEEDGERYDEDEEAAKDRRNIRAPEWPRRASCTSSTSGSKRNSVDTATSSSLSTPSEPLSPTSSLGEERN
UniProt O60443: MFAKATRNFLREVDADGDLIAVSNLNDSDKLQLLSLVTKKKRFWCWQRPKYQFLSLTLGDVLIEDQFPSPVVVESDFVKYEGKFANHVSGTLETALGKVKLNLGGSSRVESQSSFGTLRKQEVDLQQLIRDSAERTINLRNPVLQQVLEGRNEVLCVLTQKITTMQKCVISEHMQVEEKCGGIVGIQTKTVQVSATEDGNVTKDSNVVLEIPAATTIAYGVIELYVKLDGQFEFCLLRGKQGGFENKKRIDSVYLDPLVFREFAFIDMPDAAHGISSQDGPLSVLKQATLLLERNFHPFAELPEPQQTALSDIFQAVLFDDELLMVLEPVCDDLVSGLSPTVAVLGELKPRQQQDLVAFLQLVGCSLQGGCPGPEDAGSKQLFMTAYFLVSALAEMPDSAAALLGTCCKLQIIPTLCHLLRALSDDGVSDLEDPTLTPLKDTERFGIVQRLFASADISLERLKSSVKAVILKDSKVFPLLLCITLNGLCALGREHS
UniProt Q969S8: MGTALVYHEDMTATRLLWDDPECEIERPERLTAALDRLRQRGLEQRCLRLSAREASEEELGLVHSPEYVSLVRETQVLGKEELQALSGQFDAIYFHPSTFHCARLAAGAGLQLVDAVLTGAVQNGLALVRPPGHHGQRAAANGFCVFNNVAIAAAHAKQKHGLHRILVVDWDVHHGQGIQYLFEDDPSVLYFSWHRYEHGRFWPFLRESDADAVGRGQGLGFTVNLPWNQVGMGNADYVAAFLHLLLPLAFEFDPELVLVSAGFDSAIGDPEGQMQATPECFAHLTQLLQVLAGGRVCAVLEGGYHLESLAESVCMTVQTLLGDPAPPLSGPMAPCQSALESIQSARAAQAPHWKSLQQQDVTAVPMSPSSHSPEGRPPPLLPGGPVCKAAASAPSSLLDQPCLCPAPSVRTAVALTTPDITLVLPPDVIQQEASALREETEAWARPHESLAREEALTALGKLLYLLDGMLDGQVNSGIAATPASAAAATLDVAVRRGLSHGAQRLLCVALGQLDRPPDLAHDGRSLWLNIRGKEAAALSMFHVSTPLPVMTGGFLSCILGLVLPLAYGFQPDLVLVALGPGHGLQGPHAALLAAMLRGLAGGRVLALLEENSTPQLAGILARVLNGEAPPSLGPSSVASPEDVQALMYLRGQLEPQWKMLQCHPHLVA
UniProt Q8WUA4: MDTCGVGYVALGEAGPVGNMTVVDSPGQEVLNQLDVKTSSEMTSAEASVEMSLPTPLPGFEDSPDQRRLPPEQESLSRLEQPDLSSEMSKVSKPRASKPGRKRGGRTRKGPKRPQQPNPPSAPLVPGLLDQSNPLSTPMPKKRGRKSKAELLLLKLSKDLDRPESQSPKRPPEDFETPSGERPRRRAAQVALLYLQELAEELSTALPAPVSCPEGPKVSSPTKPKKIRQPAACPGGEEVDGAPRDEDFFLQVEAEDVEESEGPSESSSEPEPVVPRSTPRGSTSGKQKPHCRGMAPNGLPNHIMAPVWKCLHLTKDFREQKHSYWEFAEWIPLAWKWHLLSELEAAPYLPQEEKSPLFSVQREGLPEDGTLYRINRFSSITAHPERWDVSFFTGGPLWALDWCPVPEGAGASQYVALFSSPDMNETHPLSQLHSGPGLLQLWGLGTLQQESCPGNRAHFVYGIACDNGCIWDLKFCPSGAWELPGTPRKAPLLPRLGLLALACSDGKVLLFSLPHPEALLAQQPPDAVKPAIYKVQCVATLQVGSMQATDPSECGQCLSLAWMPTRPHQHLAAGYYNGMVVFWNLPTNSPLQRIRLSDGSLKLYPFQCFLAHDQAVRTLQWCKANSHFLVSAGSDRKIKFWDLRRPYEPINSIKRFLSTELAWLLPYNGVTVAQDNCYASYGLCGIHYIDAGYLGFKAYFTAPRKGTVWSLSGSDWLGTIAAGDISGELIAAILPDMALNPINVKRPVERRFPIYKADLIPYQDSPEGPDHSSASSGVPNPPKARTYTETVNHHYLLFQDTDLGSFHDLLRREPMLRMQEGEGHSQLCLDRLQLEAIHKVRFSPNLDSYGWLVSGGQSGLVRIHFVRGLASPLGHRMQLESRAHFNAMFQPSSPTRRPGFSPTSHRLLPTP
UniProt Q13547, whole entry, looked up: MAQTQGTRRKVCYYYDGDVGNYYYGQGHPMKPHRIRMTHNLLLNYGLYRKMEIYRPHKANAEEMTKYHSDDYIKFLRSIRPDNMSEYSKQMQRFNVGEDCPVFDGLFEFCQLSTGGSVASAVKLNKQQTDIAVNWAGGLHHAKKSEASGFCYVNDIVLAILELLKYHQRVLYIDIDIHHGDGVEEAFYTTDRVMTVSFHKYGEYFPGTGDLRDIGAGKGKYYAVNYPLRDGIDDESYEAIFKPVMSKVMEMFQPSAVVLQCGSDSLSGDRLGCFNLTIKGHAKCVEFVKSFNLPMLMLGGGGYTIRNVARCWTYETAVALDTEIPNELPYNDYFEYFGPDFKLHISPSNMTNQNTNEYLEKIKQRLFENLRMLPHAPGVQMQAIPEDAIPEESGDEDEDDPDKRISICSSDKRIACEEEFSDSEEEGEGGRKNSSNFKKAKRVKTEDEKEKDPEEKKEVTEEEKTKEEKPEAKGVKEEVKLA
UniProt Q9UBN7: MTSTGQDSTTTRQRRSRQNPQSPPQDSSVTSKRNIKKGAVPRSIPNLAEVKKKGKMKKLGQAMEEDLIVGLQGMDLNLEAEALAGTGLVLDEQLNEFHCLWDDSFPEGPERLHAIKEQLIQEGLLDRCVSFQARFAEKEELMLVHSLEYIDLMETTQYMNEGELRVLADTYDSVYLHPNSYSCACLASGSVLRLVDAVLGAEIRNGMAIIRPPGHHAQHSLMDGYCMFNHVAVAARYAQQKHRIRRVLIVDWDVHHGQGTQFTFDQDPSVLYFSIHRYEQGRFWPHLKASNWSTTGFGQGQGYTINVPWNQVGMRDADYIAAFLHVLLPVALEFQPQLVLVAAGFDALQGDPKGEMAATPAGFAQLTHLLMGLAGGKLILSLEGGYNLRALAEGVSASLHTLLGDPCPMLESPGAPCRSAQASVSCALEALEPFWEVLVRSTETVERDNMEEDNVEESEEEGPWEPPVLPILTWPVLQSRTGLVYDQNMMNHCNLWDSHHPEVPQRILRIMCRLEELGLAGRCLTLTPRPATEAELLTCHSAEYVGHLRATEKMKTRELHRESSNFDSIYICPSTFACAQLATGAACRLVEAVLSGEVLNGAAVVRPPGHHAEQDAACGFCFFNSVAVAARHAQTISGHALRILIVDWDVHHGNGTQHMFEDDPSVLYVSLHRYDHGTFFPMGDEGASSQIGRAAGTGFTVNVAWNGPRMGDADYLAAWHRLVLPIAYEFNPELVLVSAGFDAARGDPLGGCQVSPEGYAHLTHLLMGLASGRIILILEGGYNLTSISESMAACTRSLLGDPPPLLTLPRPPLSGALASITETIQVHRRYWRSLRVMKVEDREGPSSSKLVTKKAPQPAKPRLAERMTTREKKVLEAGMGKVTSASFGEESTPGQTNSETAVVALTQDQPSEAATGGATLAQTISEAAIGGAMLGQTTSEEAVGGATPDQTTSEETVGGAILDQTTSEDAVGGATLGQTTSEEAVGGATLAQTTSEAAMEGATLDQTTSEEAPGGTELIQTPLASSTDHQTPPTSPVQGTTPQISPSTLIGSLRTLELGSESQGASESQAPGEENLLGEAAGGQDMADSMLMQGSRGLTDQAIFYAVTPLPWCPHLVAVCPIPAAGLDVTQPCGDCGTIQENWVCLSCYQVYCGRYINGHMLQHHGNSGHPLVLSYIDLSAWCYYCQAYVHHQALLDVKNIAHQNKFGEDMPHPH
UniProt P52655, whole entry, looked up: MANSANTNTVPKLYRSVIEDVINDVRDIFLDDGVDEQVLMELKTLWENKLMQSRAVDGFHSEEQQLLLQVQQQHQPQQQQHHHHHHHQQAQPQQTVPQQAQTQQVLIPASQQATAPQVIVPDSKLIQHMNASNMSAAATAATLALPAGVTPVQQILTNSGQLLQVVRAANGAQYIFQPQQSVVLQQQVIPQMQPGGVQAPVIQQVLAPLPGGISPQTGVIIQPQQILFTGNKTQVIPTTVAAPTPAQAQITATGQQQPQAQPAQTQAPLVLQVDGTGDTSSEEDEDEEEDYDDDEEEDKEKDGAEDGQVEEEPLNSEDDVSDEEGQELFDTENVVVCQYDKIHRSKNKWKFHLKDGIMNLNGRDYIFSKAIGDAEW
UniProt Q8WUI4: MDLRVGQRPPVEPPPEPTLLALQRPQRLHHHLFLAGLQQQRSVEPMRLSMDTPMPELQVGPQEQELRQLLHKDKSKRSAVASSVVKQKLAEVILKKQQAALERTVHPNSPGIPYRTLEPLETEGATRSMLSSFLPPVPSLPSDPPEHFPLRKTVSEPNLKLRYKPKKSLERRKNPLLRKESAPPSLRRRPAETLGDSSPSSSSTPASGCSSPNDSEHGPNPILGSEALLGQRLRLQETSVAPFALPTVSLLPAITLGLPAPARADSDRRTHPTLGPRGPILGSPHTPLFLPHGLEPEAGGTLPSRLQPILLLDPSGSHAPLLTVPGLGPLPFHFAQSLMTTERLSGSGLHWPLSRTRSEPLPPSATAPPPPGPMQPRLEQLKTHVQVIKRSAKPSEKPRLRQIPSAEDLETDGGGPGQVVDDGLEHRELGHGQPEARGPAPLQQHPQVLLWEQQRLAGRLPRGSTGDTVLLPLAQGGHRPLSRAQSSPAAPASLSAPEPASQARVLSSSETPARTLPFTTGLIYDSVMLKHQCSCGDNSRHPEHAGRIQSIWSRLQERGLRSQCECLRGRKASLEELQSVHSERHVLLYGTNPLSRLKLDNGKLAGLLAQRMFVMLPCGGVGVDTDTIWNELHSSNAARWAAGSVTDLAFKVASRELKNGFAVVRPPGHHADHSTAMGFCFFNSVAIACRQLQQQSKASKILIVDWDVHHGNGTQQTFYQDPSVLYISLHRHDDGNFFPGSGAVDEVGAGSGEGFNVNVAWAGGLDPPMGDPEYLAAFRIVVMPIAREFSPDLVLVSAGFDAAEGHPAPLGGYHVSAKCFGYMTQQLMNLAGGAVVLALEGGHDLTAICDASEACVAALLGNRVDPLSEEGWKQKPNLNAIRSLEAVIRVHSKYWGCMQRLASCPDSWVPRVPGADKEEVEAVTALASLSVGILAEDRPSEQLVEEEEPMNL

Assays:
Assay in all cases: log2 fold change, soluble protein after heating vs DMSO (PISA); higher = thermal stabilisation; K562 lysate, 10 uM; active = over 0.2 and 3.5 SD of the protein, either way, in both replicates (recomputed)
lapatinib = compound: CS(=O)(=O)CCNCc1ccc(-c2ccc3ncnc(Nc4ccc(OCc5cccc(F)c5)c(Cl)c4)c3c2)o1 [lapatinib]
How it was run: (§1)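 K562 pellets were dounce-homogenised in PBS pH 7.4 with 1 mM MgCl2, and the crude extract at 1 mg/mL protein was treated with 10 μM compound for 30 min. Aliquots were heated for 3 min across 48°C-58°C, pooled, and brought to 0.5% NP-40 at 4°C; soluble protein was the supernatant after 21,000xg for 90 min. Soluble protein was quantified by TMTpro 16plex LC-MS/MS with channel sums equalised, and reported as log2 fold change in thermal stability against DMSO controls, with values from duplicates.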

pictilisib = compound: CS(=O)(=O)N1CCN(Cc2cc3nc(-c4cccc5[nH]ncc45)nc(N4CCOCC4)c3s2)CC1 [pictilisib]
How it was run: as §1

crizotinib = compound: C[C@@H](Oc1cc(-c2cnn(C3CCNCC3)c2)cnc1N)c1c(Cl)ccc(F)c1Cl [crizotinib]
How it was run: as §1

[1] = compound: C[C@H](C1=CC=C(C=C1)C(=O)NC2=C3C=CNC3=NC=C2)N
How it was run: as §1

duvelisib = compound: C[C@H](Nc1ncnc2nc[nH]c12)c1cc2cccc(Cl)c2c(=O)n1-c1ccccc1 [duvelisib]
How it was run: as §1

gandotinib = compound: Cc1cc(Nc2cc(CN3CCOCC3)c3nc(C)c(Cc4ccc(Cl)cc4F)n3n2)n[nH]1 [gandotinib]
How it was run: as §1

doramapimod = compound: Cc1ccc(-n2nc(C(C)(C)C)cc2NC(=O)Nc2ccc(OCCN3CCOCC3)c3ccccc23)cc1 [doramapimod]
How it was run: as §1

bafetinib = compound: Cc1ccc(NC(=O)c2ccc(CN3CC[C@H](N(C)C)C3)c(C(F)(F)F)c2)cc1Nc1nccc(-c2cncnc2)n1 [bafetinib]
How it was run: as §1

[2] = compound: Cc1cccc(CC(=O)N2CCc3c2ccc(-c2cn(C)c4ncnc(N)c24)c3F)n1
How it was run: as §1

dasatinib = compound: Cc1nc(Nc2ncc(C(=O)Nc3c(C)cccc3Cl)s2)cc(N2CCN(CCO)CC2)n1 [dasatinib]
How it was run: as §1

[3] = compound: Cn1cc(-c2ccc3c(c2)CCN3C(=O)Cc2cccc(C(F)(F)F)c2)c2c(N)ncnc21
How it was run: as §1

quisinostat = compound: Cn1cc(CNCC2CCN(c3ncc(C(=O)NO)cn3)CC2)c2ccccc21 [quisinostat]
How it was run: as §1

[4] = compound: NC(=O)Nc1cc(-c2cccc(F)c2)sc1C(=O)N[C@H]1CCCNC1
How it was run: as §1

[5] = compound: NC(=O)c1cnc(N[C@@H]2CCCC[C@@H]2N)nc1Nc1cccc(-n2nccn2)c1
How it was run: as §1

[6] = compound: NC1(c2ccc(-c3nc4ccn5c(=O)[nH]nc5c4cc3-c3ccccc3)cc2)CCC1
How it was run: as §1

tozasertib = compound: Cc1cc(Nc2cc(N3CCN(C)CC3)nc(Sc3ccc(NC(=O)C4CC4)cc3)n2)n[nH]1 [tozasertib]
How it was run: as §1

nilotinib = compound: Cc1cn(-c2cc(NC(=O)c3ccc(C)c(Nc4nccc(-c5cccnc5)n4)c3)cc(C(F)(F)F)c2)cn1 [nilotinib]
How it was run: as §1

[7] = compound: Cc1nc(Nc2n[nH]c3c2CN(C(=O)N[C@H](CN(C)C)c2ccccc2)C3(C)C)c2sccc2n1
How it was run: as §1

[8] = compound: Cc1ncc(-c2ccnc(Nc3ccc(S(C)(=O)=O)cc3)n2)n1C(C)C
How it was run: as §1

tipifarnib = compound: Cn1cncc1[C@@](N)(c1ccc(Cl)cc1)c1ccc2c(c1)c(-c1cccc(Cl)c1)cc(=O)n2C [tipifarnib]
How it was run: as §1

Measured: log2 fold change

GSR isoform 5 (UniProt P00390)
inactive: lapatinib -0.094 | pictilisib -0.136 | crizotinib -0.143 | [1] -0.564 | duvelisib -0.042 | gandotinib 0.356 | doramapimod 0.017 | bafetinib 0.013 | [2] 0.304 | dasatinib -0.055 | [3] -0.028 | quisinostat -0.29 | [4] 0.062 | [5] -0.018 | [6] -0.448

HBS1L isoform 2 (UniProt Q9Y450)
inactive: lapatinib 0.039 | pictilisib 0.043 | crizotinib -0.003 | [1] -0.04 | duvelisib 0.027 | gandotinib 0.035 | tozasertib 0.009 | doramapimod 0.02 | bafetinib -0.036 | [2] 0.053 | nilotinib -0.069 | [7] -0.028 | dasatinib 0.01 | [8] 0.074 | [3] -0.081 | quisinostat -0.079 | tipifarnib 0.009 | [4] 0.073 | [5] -0.006 | [6] -0.008

GSN (UniProt P06396)
inactive: lapatinib 0.044 | pictilisib 0 | crizotinib -0.01 | [1] -0.021 | duvelisib -0.009 | gandotinib 0.018 | tozasertib -0.035 | doramapimod 0.035 | bafetinib -0.037 | [2] 0.058 | nilotinib 0.009 | [7] -0.007 | dasatinib -0.009 | [8] -0.018 | [3] 0.01 | quisinostat -0.006 | tipifarnib -0.011 | [4] 0.014 | [5] 0.012 | [6] 0.009

GYS1 (UniProt P13807)
inactive: lapatinib -0.046 | pictilisib -0.055 | crizotinib -0.002 | [1] -0.021 | duvelisib 0.007 | gandotinib -0.012 | tozasertib 0.105 | doramapimod -0.06 | bafetinib 0.036 | [2] -0.01 | nilotinib -0.021 | [7] 0.011 | dasatinib 0.055 | [8] 0.005 | [3] 0.064 | quisinostat -0.037 | tipifarnib 0.031 | [4] 0.026 | [5] -0.007 | [6] 0.044

GSDME (UniProt O60443)
inactive: lapatinib 0.024 | pictilisib 0.035 | crizotinib 0.004 | [1] 0.007 | duvelisib 0.08 | gandotinib -0.061 | tozasertib -0.146 | doramapimod -0.078 | bafetinib 0.094 | [2] -0.002 | dasatinib -0.014 | [3] -0.111 | quisinostat -0.179 | [4] 0.153 | [5] 0.033 | [6] -0.057

HDAC10 (UniProt Q969S8)
inactive: lapatinib -0.101 | pictilisib -0.019 | crizotinib -0.015 | [1] -0.042 | duvelisib -0.014 | gandotinib 0.029 | tozasertib 0.068 | doramapimod -0.046 | bafetinib 0.035 | [2] 0.061 | nilotinib -0.009 | [7] 0.023 | dasatinib -0.104 | [8] 0.032 | [3] 0.144 | quisinostat 0.245 | tipifarnib -0.123 | [4] 0.092 | [5] 0.111 | [6] -0.001

GTF3C2 (UniProt Q8WUA4)
inactive: lapatinib -0.016 | pictilisib -0.042 | crizotinib -0.017 | [1] -0.127 | duvelisib 0.018 | gandotinib 0.068 | tozasertib -0.055 | doramapimod -0.014 | bafetinib -0.107 | [2] 0.124 | nilotinib -0.034 | [7] -0.031 | dasatinib -0.029 | [8] -0.047 | [3] 0.001 | quisinostat -0.064 | tipifarnib 0.006 | [4] 0.009 | [5] 0.037 | [6] 0.005

HDAC1 (UniProt Q13547)
inactive: lapatinib 0.004 | pictilisib 0.01 | crizotinib -0.014 | [1] -0.04 | duvelisib -0.029 | gandotinib -0.004 | tozasertib -0.015 | doramapimod 0.006 | bafetinib 0.036 | [2] 0.036 | nilotinib 0.01 | [7] -0.024 | dasatinib -0.021 | [8] -0.019 | [3] 0.028 | tipifarnib -0.041 | [4] -0.033 | [5] 0.03 | [6] 0.009
active: quisinostat 0.857

HDAC6 (UniProt Q9UBN7)
inactive: lapatinib -0.019 | pictilisib -0.085 | crizotinib -0.039 | [1] 0.014 | duvelisib 0.065 | gandotinib -0.017 | tozasertib 0.002 | doramapimod 0.012 | bafetinib -0.069 | [2] -0.01 | nilotinib 0.078 | [7] -0.016 | dasatinib -0.06 | [8] -0.034 | [3] 0.042 | quisinostat 0.031 | tipifarnib 0.024 | [4] -0.01 | [5] 0.034 | [6] -0.027

GTF2A1 (UniProt P52655)
inactive: lapatinib 0.034 | pictilisib 0.011 | crizotinib 0.055 | duvelisib 0.009 | gandotinib -0.141 | tozasertib 0.064 | doramapimod 0.028 | bafetinib 0.026 | [2] -0.111 | nilotinib 0.024 | [7] -0.047 | dasatinib 0.022 | [8] 0.095 | [3] 0.046 | quisinostat -0.039 | tipifarnib 0.021 | [4] -0.04 | [5] 0.007 | [6] -0.012
active: [1] 0.327

GTPBP4 (UniProt Q9BZE4)
inactive: lapatinib 0.007 | pictilisib -0.013 | crizotinib -0.079 | [1] -0.01 | duvelisib 0.018 | gandotinib -0.016 | tozasertib -0.005 | doramapimod -0.003 | bafetinib -0.041 | [2] 0.029 | nilotinib 0.029 | [7] 0.008 | dasatinib -0.009 | [8] -0.015 | [3] -0.004 | quisinostat -0.03 | tipifarnib -0.003 | [4] 0.029 | [5] -0.005 | [6] -0.007

HDAC7 isoform 5 (UniProt Q8WUI4)
inactive: lapatinib 0.015 | pictilisib 0.029 | crizotinib 0.014 | [1] -0.015 | duvelisib 0.013 | gandotinib 0.012 | tozasertib 0.014 | doramapimod 0.031 | bafetinib 0.017 | [2] 0.026 | nilotinib 0.004 | [7] -0.004 | dasatinib -0.018 | [8] -0.005 | [3] -0.041 | tipifarnib -0.051 | [4] -0.009 | [5] 0.013 | [6] 0.002
